# Values joined by “and” are separate entries in the source; they are usually repeats but may differ in a detail not shown here. Equal values may be shown once. Among all 580,000 compounds or so, about 6,100 (1.1%) were called active. Inconclusive results, whose numbers are uncertain, are shown with a selection of clear calls. Calls follow the shape of the dose curve; as a rule, active = well fitted inhibition curve with a large enough effect; inconclusive = small, poorly fitted or top-dose-only effect, or another doubt; inactive = no such curve, though single readings can be large or run the other way. Potencies beside an inconclusive call are fits to weak or partial responses and may not hold up.
# Protein sequences, listed by entry. Tags and fused reporters are not part of them. Lines headed by an entry give the natural chain unless they say otherwise; changes in a name come on top.
# UniProt P18054: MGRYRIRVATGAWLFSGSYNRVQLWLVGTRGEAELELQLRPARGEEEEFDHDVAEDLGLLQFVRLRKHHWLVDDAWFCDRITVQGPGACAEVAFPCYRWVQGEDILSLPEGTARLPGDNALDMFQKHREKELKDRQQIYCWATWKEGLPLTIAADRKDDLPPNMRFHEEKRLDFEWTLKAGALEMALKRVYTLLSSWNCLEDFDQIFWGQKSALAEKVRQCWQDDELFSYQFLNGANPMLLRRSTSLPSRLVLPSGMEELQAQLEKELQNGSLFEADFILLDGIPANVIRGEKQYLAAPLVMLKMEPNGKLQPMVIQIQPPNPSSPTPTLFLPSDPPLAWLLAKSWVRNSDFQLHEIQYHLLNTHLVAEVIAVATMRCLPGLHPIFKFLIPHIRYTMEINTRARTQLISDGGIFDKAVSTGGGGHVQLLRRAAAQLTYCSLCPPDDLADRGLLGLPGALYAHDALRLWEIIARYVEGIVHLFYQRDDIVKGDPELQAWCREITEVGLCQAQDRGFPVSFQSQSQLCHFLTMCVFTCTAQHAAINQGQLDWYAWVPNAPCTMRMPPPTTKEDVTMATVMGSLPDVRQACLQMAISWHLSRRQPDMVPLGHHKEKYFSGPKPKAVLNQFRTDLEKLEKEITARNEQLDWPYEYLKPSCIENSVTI
# Target: Polyunsaturated fatty acid lipoxygenase ALOX12 (Homo sapiens) (UniProt P18054)
# Assay: Primary qHTS assay for inhibitors of human arachidonate 12S-lipoxygenase (ALOX12): Round 2
# Settings: purified 12hLO, xylenol orange hydroperoxide absorbance; activity change, negative = inhibition: at 108 µM (top of the series) unless noted
# How it was run: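 Purified human 12hLO (150 nM final) in 25 mM Hepes, 0.01% Triton X-100, pH 7.0 was preincubated 15 min at room temperature with compound. Then 40 uM arachidonic acid was added, 30 min. Hydroperoxide was read by Fe-XO absorbance ratio 573/405 nm.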
# % is scaled to controls: 0 for no effect and ±100 for the full control effect; potency is read from the fitted curve at half-maximal effect.
Compound,"activity change, negative = inhibition",Potency
CC1CN(c2ccc(Cl)cc2[N+](=O)[O-])CCN1S(C)(=O)=O (stereo not drawn),inactive: -18.4%,
CN(Cc1cccs1)C(=O)COc1cccc2c1OC(C)(C)C2,inactive: -3.41%,
O=C1c2[nH]nc(-c3ccccc3)c2C(c2ccc(F)cc2)N1Cc1ccccc1 (stereo not drawn),,"inconclusive: 50.1 µM [inhibitor, partial curve, poor fit]"
O=C(c1ccco1)N(Cc1ccc2c(c1)OCO2)Cc1cc2cc3c(cc2[nH]c1=O)OCO3,,"inconclusive: 20 µM [inhibitor, full curve]"
Nc1ccc2nc(CCCCc3nc4ccccc4[nH]3)[nH]c2c1,,"inconclusive: 31.6 µM [inhibitor, single point]"
COc1ccc(C)cc1NC(=O)c1ccccc1N(C)S(=O)(=O)c1ccccc1,inactive: 18.3%,
CC1CCCCC1NC(=O)CSc1ccsc1[N+](=O)[O-] (stereo not drawn),inactive: 0.11%,
CC(=O)Cn1c(N2CCC(Cc3ccccc3)CC2)nc2c1c(=O)[nH]c(=O)n2C,,"inconclusive: 0.251 µM [inhibitor, full curve, poor fit]"
CN(C)C1=NC[C@H](Cc2ccccc2)N1CCC1CCCC1,inactive: -3.62%,
O=C(C1CCCN(Cc2ccccc2)C1)N1CCc2ccccc2C1 (stereo not drawn),,"inconclusive: 3.98 µM [inhibitor, full curve, poor fit]"
CN(C(=O)c1ccc2c(c1)NC(=O)CS2)c1ccccc1,,"inconclusive: 44.7 µM [inhibitor, single point]"
COc1cc(/C=N\NC(=O)c2ccc(Cn3cc(Br)c([N+](=O)[O-])n3)o2)cc(OC)c1O,,"inconclusive: 112 µM [inhibitor, partial curve, poor fit]"
COc1ccc(C(=O)/C(C#N)=C\c2cc(Br)ccc2OC)cc1,,"inconclusive: 0.501 µM [inhibitor, full curve, poor fit]"
Clc1ccc(C2=CSC3=NCCN23)cc1Cl,,"inconclusive: 20 µM [inhibitor, partial curve, poor fit]"
O=C(c1sc2cc(Cl)ccc2c1Cl)N(Cc1ccccc1)C1CCS(=O)(=O)C1 (stereo not drawn),,"inconclusive: 39.8 µM [inhibitor, partial curve, poor fit]"
O=C(OCC(=O)N1c2ccccc2Sc2ccccc21)C1CC(=O)N(Cc2ccco2)C1 (stereo not drawn),,"inconclusive: 79.4 µM [inhibitor, single point]"
COC(=O)c1ccccc1NC(=O)c1ccccc1SC,,"inconclusive: 79.4 µM [inhibitor, partial curve, poor fit]"
COc1ccccc1NC(=O)CSc1nc2sc(C)c(C)c2c(=O)n1C,inactive: -16.7%,
O=c1c2c([N+](=O)[O-])cc([N+](=O)[O-])cc2sn1Cc1ccccc1,,active: 0.794 µM
COc1cc(S(=O)(=O)NCCCn2ccnc2)ccc1Cl,,"inconclusive: 89.1 µM [inhibitor, single point]"
O[C@@H]1C[C@@H](c2nc(Cc3ccc(F)cc3Cl)no2)N(Cc2ccco2)C1,,active: 25.1 µM

Compound,"activity change, negative = inhibition",Potency
CN(C)S(=O)(=O)c1cc(NC(=O)CNCCN2CCOCC2)ccc1Cl,inactive: -19.7%,
CCCn1nc(NC(=O)c2cccs2)c2cc3cc(OC)ccc3nc21,inactive: 22.5%,
COc1cccc(CNC(=O)Cn2c(SCC(=O)Nc3ccc(F)cc3)nc3ccccc32)c1,,"inconclusive: 89.1 µM [inhibitor, partial curve, poor fit]"
COc1cc(/C=C/c2nc3ccccc3c(=O)[nH]2)cc(OC)c1OC,,"inconclusive: 28.2 µM [inhibitor, single point]"
COCCNC(=O)[C@H]1C[C@H](Oc2ccccc2)CN1C(=O)NCc1ccccc1,inactive: 5.11%,
Cn1c(N)c(C(=O)CCl)c(=O)n(C)c1=O,,"inconclusive: 39.8 µM [inhibitor, partial curve, poor fit]"
COc1ccc(N(CC(O)CN2C(=O)NC(C)(C)C2=O)S(=O)(=O)c2ccccc2)cc1 (stereo not drawn),,"inconclusive: 126 µM [inhibitor, partial curve, poor fit]"
Cc1nn(-c2ccc(F)cc2)c(C)c1CNC(=O)c1ccc(-n2cc(NC(=O)c3ccoc3)cn2)cc1,inactive: -1.22%,
CCOCCC(=O)Nc1ccc2c(c1)c(=O)n(C)n2CC=C(C)C,,"inconclusive: 39.8 µM [inhibitor, partial curve, poor fit]"
CCOc1ccc(/C=N/n2c(-c3ccccc3)n[nH]c2=S)cc1,,"inconclusive: 89.1 µM [inhibitor, partial curve, poor fit]"
Cn1cnnc1SC(C(=O)c1ccccc1)c1ccccc1 (stereo not drawn),,"inconclusive: 39.8 µM [inhibitor, partial curve, poor fit]"
O=C(CSc1nnnn1-c1ccccc1)Nc1ccc(N2CCOCC2)c(Cl)c1,,"inconclusive: 11.2 µM [inhibitor, partial curve, poor fit]"
N#CC1=C(N)Oc2ccc3ccc(O)cc3c2C1c1ccsc1 (stereo not drawn),,"inconclusive: 39.8 µM [inhibitor, partial curve, poor fit]"
CCO/C(C)=C1\N=C(c2ccc(Cl)cc2)OC1=O,,"inconclusive: 39.8 µM [inhibitor, partial curve, poor fit]"
O=C(NC1CCSc2ccccc21)C1CCCC1 (stereo not drawn),,"inconclusive: 112 µM [inhibitor, single point]"
COc1cc2c(cc1OC)C(c1cc3cc(OC)c(OC)cc3[nH]c1=O)N(C(=O)C1CC1)CC2 (stereo not drawn),inactive: -14.9%,
O=C(CN1CCOCC1)N1CC(F)(F)C[C@H]1c1nc(C2CC2)no1,inactive: 29.8%,
C=C(C)CNC(=S)Nc1sc2c(c1C(=O)OCC)CC(C)(C)OC2,,"inconclusive: 44.7 µM [inhibitor, partial curve, poor fit]"
CCOc1ccc(NC(=O)NC(C)c2ccc(Cl)s2)cc1 (stereo not drawn),,"inconclusive: 100 µM [inhibitor, single point]"
C[C@@]12C(=O)N(Cc3ccco3)CC(=O)N1[C@H]1c3cc(Cl)ccc3OC[C@@H]1[C@@H]2c1ccccc1,,"inconclusive: 7.08 µM [inhibitor, full curve]"
CC(=O)Nc1nc(C)c(-c2csc(Nc3ccccn3)n2)s1,,"inconclusive: 44.7 µM [inhibitor, partial curve, poor fit] and inconclusive: 100 µM [inhibitor, single point]"

# Some of the entries so far, with tabs.
Compound	activity change, negative = inhibition	Potency
COCCNC(=O)[C@H]1C[C@H](Oc2ccccc2)CN1C(=O)NCc1ccccc1	inactive: 5.11%	
COc1ccc(N(CC(O)CN2C(=O)NC(C)(C)C2=O)S(=O)(=O)c2ccccc2)cc1 (stereo not drawn)		inconclusive: 126 µM [inhibitor, partial curve, poor fit]
CCOCCC(=O)Nc1ccc2c(c1)c(=O)n(C)n2CC=C(C)C		inconclusive: 39.8 µM [inhibitor, partial curve, poor fit]
O=C(NC1CCSc2ccccc21)C1CCCC1 (stereo not drawn)		inconclusive: 112 µM [inhibitor, single point]
CCOc1ccc(NC(=O)NC(C)c2ccc(Cl)s2)cc1 (stereo not drawn)		inconclusive: 100 µM [inhibitor, single point]

# Following part:

Compound,"activity change, negative = inhibition",Potency
O=C1C(Cl)=C(N2CCCCCC2)C(=O)N1c1ccccc1Cl,,"inconclusive: 39.8 µM [inhibitor, partial curve, poor fit]"
Cc1ccc(C(=O)Nc2nnc(NC(=S)Nc3ccccc3)s2)cc1,,active: 39.8 µM
CC(=O)c1c(C)[nH]c(C(=O)OC(C)c2nnc(-c3cccc(C)c3)o2)c1C (stereo not drawn),,"inconclusive: 0.0891 µM [inhibitor, full curve, poor fit]"
O=C(Nc1nc2ccccc2s1)c1noc2c1CSc1ccccc1-2,,"inconclusive: 0.891 µM [inhibitor, full curve]"
COc1cc(/C=C2/NC(=O)NC2=O)ccc1OCC(=O)O,,"inconclusive: 10 µM [inhibitor, full curve, poor fit]"
c1cc(CN2CCCCC2)cc(OCCCNc2nc3ccccc3s2)c1,,"inconclusive: 31.6 µM [inhibitor, partial curve, poor fit] and inconclusive: 12.6 µM [inhibitor, full curve, poor fit]"
COc1ccc(/C=C/C(=O)c2ccc([N+](=O)[O-])o2)cc1OC,inactive: 0%,
O=C(O)c1ccc(NCc2nc3c(n2Cc2ccccc2)C(=O)N(Cc2cccc(Cl)c2)CCN3)cc1,,"inconclusive: 17.8 µM [inhibitor, full curve]"
CC(=O)c1ccc(NC(=O)O[C@@H]2CO[C@H]3[C@@H]2OC[C@@H]3NS(=O)(=O)c2ccc(Cl)cc2)cc1,,"inconclusive: 31.6 µM [inhibitor, partial curve]"
CN1CCN(c2ccc(Cl)cc2NC(=O)CC2OC(=O)c3ccccc32)CC1 (stereo not drawn),,"inconclusive: 50.1 µM [inhibitor, partial curve, poor fit]"
COc1cc2cc(C)nc(Cc3cccc4ccccc34)c2cc1OC,,"inconclusive: 89.1 µM [inhibitor, single point]"
COc1ccc(S(=O)(=O)N/N=C\c2ccc(OC)c(COc3ccc(C)cc3[N+](=O)[O-])c2)cc1,,"inconclusive: 15.8 µM [inhibitor, partial curve, poor fit]"
C#Cc1cccc(Nc2nc(NCc3ccccc3OC)nc3ccsc23)c1,,"inconclusive: 79.4 µM [inhibitor, single point]"
CCCCNC(=O)C1CCC(CNS(=O)(=O)c2c(C)cc(C)cc2C)CC1 (stereo not drawn),,"inconclusive: 126 µM [inhibitor, partial curve, poor fit]"
O=C(NCC1CCC1)c1ccccc1Nc1ccccc1,,"inconclusive: 11.2 µM [inhibitor, full curve, poor fit]"
O=c1c2c(-c3ccccc3)csc2ncn1/N=C/c1ccc(O)c([N+](=O)[O-])c1,,"inconclusive: 44.7 µM [inhibitor, partial curve, poor fit]"
Cc1ccccc1N1CCN(c2ccccc2NC(=O)/C=C\C(=O)O)CC1,,"inconclusive: 35.5 µM [inhibitor, partial curve, poor fit]"
COc1ccc(C2Cn3nnc(-c4noc(-c5cccnc5)n4)c3CO2)cc1 (stereo not drawn),inactive: 21.2%,
CC1CCC(C(=O)NC(C(=O)O)C(C)C)CC1 (stereo not drawn),,"inconclusive: 100 µM [inhibitor, single point]"
O=C(N/N=C/C(Cl)=C\c1ccccc1)c1cccs1,inactive: 46.4%,
Cc1nc(-c2ccc(S(=O)(=O)Nc3cccc(C#N)c3)cc2)co1,,"inconclusive: 44.7 µM [inhibitor, single point]"

# From PubChem BioAssay AID1671190 (National Center for Advancing Translational Sciences (NCATS), 2021)
